Experimental data reported in PMC9653720.
Results are given in words; binding and its absence hold for the method and conditions named. Binding seen in cells or lysates may run through a third protein. Some results given as binding are weak or reduced against the parent protein; the word gives no strength.

Amino acid sequences for entries named in this document (tags omitted).
UniProt Q8TDY2: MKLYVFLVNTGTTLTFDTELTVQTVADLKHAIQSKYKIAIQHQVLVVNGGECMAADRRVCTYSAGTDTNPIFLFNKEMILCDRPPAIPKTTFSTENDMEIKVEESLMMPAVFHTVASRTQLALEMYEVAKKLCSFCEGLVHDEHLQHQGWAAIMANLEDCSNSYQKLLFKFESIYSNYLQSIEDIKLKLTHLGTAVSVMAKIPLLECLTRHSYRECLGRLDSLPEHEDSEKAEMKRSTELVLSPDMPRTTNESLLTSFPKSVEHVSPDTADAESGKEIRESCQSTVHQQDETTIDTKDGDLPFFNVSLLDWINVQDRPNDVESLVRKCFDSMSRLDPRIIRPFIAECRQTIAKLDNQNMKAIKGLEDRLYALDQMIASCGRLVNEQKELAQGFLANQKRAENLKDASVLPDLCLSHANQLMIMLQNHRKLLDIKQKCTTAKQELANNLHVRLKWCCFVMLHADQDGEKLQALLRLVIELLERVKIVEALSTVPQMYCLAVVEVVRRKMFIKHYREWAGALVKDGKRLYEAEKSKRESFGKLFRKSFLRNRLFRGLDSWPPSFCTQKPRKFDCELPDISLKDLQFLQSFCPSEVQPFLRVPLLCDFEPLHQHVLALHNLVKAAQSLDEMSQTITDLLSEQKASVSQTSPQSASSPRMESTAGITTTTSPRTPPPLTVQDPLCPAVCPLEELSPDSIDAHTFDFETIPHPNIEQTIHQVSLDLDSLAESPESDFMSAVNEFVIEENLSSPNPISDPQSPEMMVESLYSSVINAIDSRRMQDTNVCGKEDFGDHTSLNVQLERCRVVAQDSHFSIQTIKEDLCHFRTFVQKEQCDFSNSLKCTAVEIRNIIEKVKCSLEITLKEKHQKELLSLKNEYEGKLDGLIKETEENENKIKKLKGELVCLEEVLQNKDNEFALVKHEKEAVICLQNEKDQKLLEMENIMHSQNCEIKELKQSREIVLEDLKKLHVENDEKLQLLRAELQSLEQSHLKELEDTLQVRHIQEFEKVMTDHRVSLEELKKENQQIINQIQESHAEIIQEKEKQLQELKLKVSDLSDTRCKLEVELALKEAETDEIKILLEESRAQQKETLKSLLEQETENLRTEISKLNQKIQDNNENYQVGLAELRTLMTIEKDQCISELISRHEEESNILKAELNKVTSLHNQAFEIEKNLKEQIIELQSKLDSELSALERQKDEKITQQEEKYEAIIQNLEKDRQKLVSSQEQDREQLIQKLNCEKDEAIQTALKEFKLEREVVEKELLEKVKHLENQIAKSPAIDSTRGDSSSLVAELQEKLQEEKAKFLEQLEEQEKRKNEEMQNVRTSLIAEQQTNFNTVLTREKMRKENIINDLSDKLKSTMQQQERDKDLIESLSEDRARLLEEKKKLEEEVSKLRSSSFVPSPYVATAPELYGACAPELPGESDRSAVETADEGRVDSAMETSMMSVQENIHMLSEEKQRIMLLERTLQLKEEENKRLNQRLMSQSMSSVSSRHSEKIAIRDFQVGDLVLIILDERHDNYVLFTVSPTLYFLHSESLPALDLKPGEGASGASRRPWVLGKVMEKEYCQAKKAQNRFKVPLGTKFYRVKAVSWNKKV
UniProt Q9BYW2: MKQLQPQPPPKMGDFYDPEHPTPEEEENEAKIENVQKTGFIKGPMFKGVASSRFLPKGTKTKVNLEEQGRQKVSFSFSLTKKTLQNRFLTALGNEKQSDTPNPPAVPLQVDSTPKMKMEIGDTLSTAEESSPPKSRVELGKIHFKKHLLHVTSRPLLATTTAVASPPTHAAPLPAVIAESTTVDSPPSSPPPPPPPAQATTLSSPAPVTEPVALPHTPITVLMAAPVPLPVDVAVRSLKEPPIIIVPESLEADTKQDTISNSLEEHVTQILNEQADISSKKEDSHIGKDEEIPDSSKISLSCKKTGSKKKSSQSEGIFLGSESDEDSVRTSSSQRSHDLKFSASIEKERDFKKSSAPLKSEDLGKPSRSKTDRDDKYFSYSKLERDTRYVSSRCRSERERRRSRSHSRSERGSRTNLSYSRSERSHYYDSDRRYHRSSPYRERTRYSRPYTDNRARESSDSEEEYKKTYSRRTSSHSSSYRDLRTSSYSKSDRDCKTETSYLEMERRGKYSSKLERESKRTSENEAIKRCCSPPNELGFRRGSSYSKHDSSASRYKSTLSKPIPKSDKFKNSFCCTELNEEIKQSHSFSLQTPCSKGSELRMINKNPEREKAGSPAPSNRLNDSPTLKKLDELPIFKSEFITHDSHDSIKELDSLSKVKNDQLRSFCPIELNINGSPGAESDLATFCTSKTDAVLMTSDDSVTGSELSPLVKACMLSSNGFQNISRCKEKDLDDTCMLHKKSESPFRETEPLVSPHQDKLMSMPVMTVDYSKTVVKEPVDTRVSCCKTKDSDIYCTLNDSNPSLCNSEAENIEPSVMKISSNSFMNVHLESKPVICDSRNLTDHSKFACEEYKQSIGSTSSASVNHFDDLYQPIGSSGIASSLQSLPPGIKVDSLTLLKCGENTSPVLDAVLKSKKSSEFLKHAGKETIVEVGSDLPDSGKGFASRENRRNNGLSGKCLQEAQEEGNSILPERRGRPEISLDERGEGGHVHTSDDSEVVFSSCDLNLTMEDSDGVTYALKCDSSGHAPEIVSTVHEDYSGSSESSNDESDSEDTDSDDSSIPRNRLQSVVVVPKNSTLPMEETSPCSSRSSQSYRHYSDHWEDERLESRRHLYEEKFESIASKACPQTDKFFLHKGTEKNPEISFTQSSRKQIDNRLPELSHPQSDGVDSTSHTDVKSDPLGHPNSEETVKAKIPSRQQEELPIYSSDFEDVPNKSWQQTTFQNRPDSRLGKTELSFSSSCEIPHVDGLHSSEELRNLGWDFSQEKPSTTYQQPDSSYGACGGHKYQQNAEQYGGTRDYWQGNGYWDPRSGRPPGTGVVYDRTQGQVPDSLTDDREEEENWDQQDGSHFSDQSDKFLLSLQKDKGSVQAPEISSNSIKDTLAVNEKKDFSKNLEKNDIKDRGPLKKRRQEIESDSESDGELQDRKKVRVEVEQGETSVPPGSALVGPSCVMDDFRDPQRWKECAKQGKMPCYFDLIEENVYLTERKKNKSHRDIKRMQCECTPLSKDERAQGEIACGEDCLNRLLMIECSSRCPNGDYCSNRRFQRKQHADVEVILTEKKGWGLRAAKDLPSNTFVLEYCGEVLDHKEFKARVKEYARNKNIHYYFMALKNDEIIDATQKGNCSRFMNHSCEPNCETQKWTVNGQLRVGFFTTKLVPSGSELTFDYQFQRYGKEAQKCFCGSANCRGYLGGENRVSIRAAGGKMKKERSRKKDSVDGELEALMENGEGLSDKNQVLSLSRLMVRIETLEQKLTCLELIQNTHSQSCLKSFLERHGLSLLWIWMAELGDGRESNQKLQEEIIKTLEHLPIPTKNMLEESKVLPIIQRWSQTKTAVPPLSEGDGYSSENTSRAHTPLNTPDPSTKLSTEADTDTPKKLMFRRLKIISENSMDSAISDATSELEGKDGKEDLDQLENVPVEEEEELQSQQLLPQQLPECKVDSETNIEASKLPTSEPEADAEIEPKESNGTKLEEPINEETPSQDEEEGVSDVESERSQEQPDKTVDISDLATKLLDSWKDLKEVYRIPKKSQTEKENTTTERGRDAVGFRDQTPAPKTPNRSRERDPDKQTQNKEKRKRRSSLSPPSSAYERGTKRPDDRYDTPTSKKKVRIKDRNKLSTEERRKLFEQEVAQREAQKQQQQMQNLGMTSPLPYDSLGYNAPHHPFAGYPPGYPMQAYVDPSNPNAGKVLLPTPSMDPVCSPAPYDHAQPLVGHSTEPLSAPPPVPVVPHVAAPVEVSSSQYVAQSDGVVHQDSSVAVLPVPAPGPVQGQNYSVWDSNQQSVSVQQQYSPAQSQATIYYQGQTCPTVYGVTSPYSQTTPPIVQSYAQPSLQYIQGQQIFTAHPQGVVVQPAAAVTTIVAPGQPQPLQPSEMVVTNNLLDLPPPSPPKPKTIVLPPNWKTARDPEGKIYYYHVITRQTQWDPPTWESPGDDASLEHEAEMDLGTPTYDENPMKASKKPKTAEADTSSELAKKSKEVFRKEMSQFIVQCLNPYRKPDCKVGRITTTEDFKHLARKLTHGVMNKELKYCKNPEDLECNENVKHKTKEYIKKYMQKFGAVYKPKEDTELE
UniProt P19474: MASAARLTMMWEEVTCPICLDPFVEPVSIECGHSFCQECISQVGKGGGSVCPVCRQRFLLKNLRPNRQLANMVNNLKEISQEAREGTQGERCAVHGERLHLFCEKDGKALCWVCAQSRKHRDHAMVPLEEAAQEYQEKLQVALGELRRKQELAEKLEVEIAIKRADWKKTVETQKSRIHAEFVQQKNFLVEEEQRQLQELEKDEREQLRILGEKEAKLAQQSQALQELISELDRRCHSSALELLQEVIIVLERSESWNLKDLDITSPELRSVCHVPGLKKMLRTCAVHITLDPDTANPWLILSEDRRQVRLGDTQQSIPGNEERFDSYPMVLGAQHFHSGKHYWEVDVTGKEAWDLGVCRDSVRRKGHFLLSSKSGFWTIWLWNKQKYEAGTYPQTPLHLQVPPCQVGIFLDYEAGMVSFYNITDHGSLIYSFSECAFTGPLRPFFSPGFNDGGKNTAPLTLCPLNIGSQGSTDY

Tests used:
[1] = target: focal adhesion kinase family interacting protein of 200 kD (FIP200), endogenous (human (endogenous in HEK293)) (UniProt Q8TDY2); assay: co-IP; endogenous proteins; cells lysed in NP-40 lysis buffer, lysate with protein G-Sepharose beads and anti-FIP200 or anti-Trim21 antibody at 4 °C overnight, four washes, Western blot
[2] = target: flag-SETD2 (human) (UniProt Q9BYW2); assay: co-IP; flag-SETD2 or flag-tagged SETD2 fragments overexpressed in HEK293, pulled down by anti-flag antibody; endogenous FIP200 detected by immunoblot
[3] = target: Trim21, endogenous (human (endogenous in HEK293 or HeLa, cell line not stated)) (UniProt P19474); assay: co-IP; endogenous proteins; cells lysed in NP-40 lysis buffer, lysate with protein G-Sepharose beads and anti-FIP200 or anti-Trim21 antibody at 4 °C overnight, four washes, Western blot

binding [1]	binding [2]	binding [3]	Substance
binds			Trim21, endogenous (from UniProt P19474 1-475) (enzyme)
	binds	binds	focal adhesion kinase family interacting protein of 200 kD (FIP200), endogenous (from UniProt Q8TDY2 1-1594)
